These results are taken from the supplement of paper PMC4683952.

Counter-ions that a name gives are not always drawn. The campaign covered roughly 1,200 compounds. About 50 (4%) showed activity. No stated cut-off is given here; in the data, all actives reach 1.3 or more but so do some inactives. The list shows a part of the results.

The subject of this experiment is Lgr5 (MarsCy1-Lgr5-EGFP, U2OS). Put plainly: cell-surface Lgr5 expression (SCi1 fluorescence, background-subtracted) relative to WT DMSO (fold of DMSO control); higher = more Lgr5 at the plasma membrane, active = hit call of the paper. Particulars: U2OS MarsCy1-Lgr5-EGFP stable; treatment time: overnight; 16 µM; library: Johns Hopkins Clinical Compound Library.
Turning to `O=C1c2c(O)cccc2Cc2cccc(O)c21` [Anthralin], the “cell-surface Lgr5 expression” value was inactive: 0.843.

With `O=C(Nc1ccc(Cl)cc1)Nc1ccc(Cl)c(Cl)c1` [Trilocarban (3,4,4'-Trichlorocarbanilide, 99%)], the “cell-surface Lgr5 expression” value was inactive: 0.931.

As to `CC(=O)OCC(=O)[C@@]1(O)[C@@H](C)C[C@H]2[C@@H]3CCC4=CC(=O)C=C[C@]4(C)[C@@]3(F)[C@@H](O)C[C@@]21C`, the “cell-surface Lgr5 expression” value was active: 1.59.

For `CC(=O)OCC(=O)[C@@]1(O)[C@@H](C)C[C@H]2[C@@H]3CCC4=CC(=O)C=C[C@]4(C)[C@@]3(F)[C@@H](O)C[C@@]21C` [Betamethasone 21-acetate], the “cell-surface Lgr5 expression” value was active: 1.53.

In the case of `CC(=O)O` [Acetic acid], the “cell-surface Lgr5 expression” value is inactive: 0.709.

On to `CC12CCC3c4ccc(OC(=O)c5ccccc5)cc4CCC3C1CCC2O` (stereo not drawn) [β-Estradiol 3-benzoate], for which the “cell-surface Lgr5 expression” value was inactive: 0.953.

Regarding `C[C@@H]1C[C@H]2[C@@H]3C[C@H](F)C4=CC(=O)C=C[C@]4(C)[C@@]3(F)[C@@H](O)C[C@]2(C)[C@@]1(O)C(=O)CO` [Flumethasone], the “cell-surface Lgr5 expression” value is active: 1.48.

Regarding `O=C(O)Cc1ccc(-c2ccccc2)cc1` [Felbinac (4-biphenylacetic acid)], the “cell-surface Lgr5 expression” value was inactive: 1.2.

On to `O=C(O)c1cn(-c2ccc(F)cc2)c2cc(N3CCNCC3)c(F)cc2c1=O` [Sarafloxacin HCl], for which the “cell-surface Lgr5 expression” value was inactive: 0.947.

Consider `C[N+]1(C)CCC(OC(=O)C(O)(c2ccccc2)C2CCCC2)C1` (stereo unspecified) [Glycopyrrolate], for which the “cell-surface Lgr5 expression” value is inactive: 0.998.

`Clc1ccc(CCC(Cn2ccnc2)Sc2c(Cl)cccc2Cl)cc1` (stereo unspecified) [Butoconazole nitrate]: the “cell-surface Lgr5 expression” value was inactive: 0.782.

`N#Cc1ccc(C(c2ccc(C#N)cc2)n2cncn2)cc1` [Letrozole]: the “cell-surface Lgr5 expression” value was inactive: 1.01.

For `Cc1cc(OS(=O)(=O)O)c2ccccc2c1OS(=O)(=O)O` [Menadiol disulfate disodium salt trihydrate], the “cell-surface Lgr5 expression” value was inactive: 0.856.

Take `N=C(NCCCCCCNC(=N)NC(=N)Nc1ccc(Cl)cc1)NC(=N)Nc1ccc(Cl)cc1` [Chlorhexidine gluconate]: the “cell-surface Lgr5 expression” value was inactive: 1.08.

As for `NCc1ccccc1CC(=O)N[C@@H]1C(=O)N2C(C(=O)O)=C(CSc3nnnn3CC(=O)O)CS[C@H]12` [Ceforanide], the “cell-surface Lgr5 expression” value is inactive: 1.11.

Turning to `COc1c2occc2cc2ccc(=O)oc12` [Methoxsalen (8-Methoxypsoralen)], the “cell-surface Lgr5 expression” value is inactive: 1.03.

Take `OC[C@@H](O)[C@@H](O)[C@H](O)[C@@H](O)CO` [D-Sorbitol]: the “cell-surface Lgr5 expression” value was inactive: 1.12.

With `S=C=Nc1ccc(N=C=S)cc1` [Bitoscanate (1,4 phenylene disothiocyanate)], the “cell-surface Lgr5 expression” value was inactive: 1.14.

`Cc1ncc(C[n+]2csc(CCOP(=O)(O)O)c2C)c(N)n1` [Monophosphothiamine (Thiamine Monophosphate chloride)]: the “cell-surface Lgr5 expression” value is inactive: 0.743.

Regarding `CCOC(=O)c1ccc(O)c(OC)c1` [Ethyl vanillate], the “cell-surface Lgr5 expression” value is inactive: 1.06.

Take `CN(C)CCCOc1nn(Cc2ccccc2)c2ccccc12` [Benzydamine]: the “cell-surface Lgr5 expression” value is inactive: 1.11.

Turning to `Cc1cc2nc3ccc(N(C)C)cc3[s+]c2cc1N` [Tolonium chloride (Toluidine blue O)], the “cell-surface Lgr5 expression” value is inactive: 1.15.

For `Nc1ccc(S(=O)(=O)Nc2ccc(Cl)nn2)cc1` [Sulfachlorpyridazine], the “cell-surface Lgr5 expression” value was inactive: 0.987.

`CN1CCC(CN2c3ccccc3Sc3ccccc32)C1` (stereo unspecified) [Methdilazine hydrochloride]: the “cell-surface Lgr5 expression” value is inactive: 1.

With `C[C@H]1C[C@H]2[C@@H]3CCC4=CC(=O)C=C[C@]4(C)[C@@]3(Cl)[C@@H](O)C[C@]2(C)[C@@]1(O)C(=O)CO` [Beclomethasone], the “cell-surface Lgr5 expression” value is active: 1.36.

`COc1cc2nc(N3CCN(C(=O)C4CCCO4)CC3)nc(N)c2cc1OC` (stereo unspecified) [Terazosin]: the “cell-surface Lgr5 expression” value is inactive: 1.05.

As to `CC1CCC(NC(=O)N(CCCl)N=O)CC1` (stereo unspecified) [Semustine], the “cell-surface Lgr5 expression” value was inactive: 1.06.

As for `C[N+]1(C)CCC(=C(c2ccccc2)c2ccccc2)CC1` [Diphemanil methylsulfate], the “cell-surface Lgr5 expression” value is inactive: 0.814.

With `O=c1[nH]c(=O)n([C@H]2C[C@H](O)[C@@H](CO)O2)cc1F` [Floxuridine (5-fluorodeoxyuridine)], the “cell-surface Lgr5 expression” value is inactive: 0.664.

Take `CNNCc1ccc(C(=O)NC(C)C)cc1` [Procarbazine HCl]: the “cell-surface Lgr5 expression” value was inactive: 1.19.

`CC(=O)Oc1cc(C(C)C)c(OCCN(C)C)cc1C` [Moxisylyte hydrochloride]: the “cell-surface Lgr5 expression” value was inactive: 0.943.

For the compound `O=P([O-])([O-])[O-].[Bi+3]` [Bismuth (III) phosphate], the “cell-surface Lgr5 expression” value was inactive: 0.855.

For `C[C@@H]1C(=O)O[C@H]2C[C@@]34[C@H]5C[C@@H](C(C)(C)C)[C@]36[C@@H](OC(=O)[C@@H]6O)O[C@@]4(C(=O)O5)[C@]21O` [Ginkgolide A], the “cell-surface Lgr5 expression” value is inactive: 0.772.

As to `NC(=O)c1ncn([C@@H]2O[C@H](CO)[C@@H](O)[C@H]2O)c1N` [Acadesine (AICAR)], the “cell-surface Lgr5 expression” value was inactive: 1.19.

With `CCC(=O)O[C@H]1[C@H](O[C@@H]2[C@@H](C)[C@H](O[C@H]3C[C@@](C)(OC)[C@@H](O)[C@H](C)O3)[C@@H](C)C(=O)O[C@H](CC)[C@@](C)(O)[C@H](O)[C@@H](C)C(=O)[C@H](C)C[C@@]2(C)O)O[C@H](C)C[C@@H]1N(C)C` [Erythromycin estolate], the “cell-surface Lgr5 expression” value was inactive: 0.567.

Turning to `Cc1ccc(S(=O)(=O)NCl)cc1` [Chloramine-T hydrate], the “cell-surface Lgr5 expression” value was inactive: 0.672.

With `C[C@@H]1O[C@@H]1P(=O)(O)O` [Fosfomycin tromethamine], the “cell-surface Lgr5 expression” value is inactive: 0.897.

For the compound `C[C@@H]1O[C@@H]1P(=O)(O)O` [Fosfomycin calcium (Phosphomycin calcium salt)], the “cell-surface Lgr5 expression” value is inactive: 0.949.

For `C[C@@H]1CN(c2c(F)c(N)c3c(=O)c(C(=O)O)cn(C4CC4)c3c2F)C[C@H](C)N1` [Sparfloxacin], the “cell-surface Lgr5 expression” value was inactive: 0.826.

Turning to `CN1CCN(C2=Nc3ccccc3Sc3ccc(Cl)cc32)CC1` [Clothiapine], the “cell-surface Lgr5 expression” value is inactive: 0.886.

On to `O=C([O-])C(O)C(O)C(=O)[O-].[K+].[Na+]` (stereo unspecified) [Potassium sodium tartrate tetrahydrate], for which the “cell-surface Lgr5 expression” value was inactive: 1.1.
